# According to the supplement of paper PMC8728848:
# The other results are listed elsewhere or left out.
# Tests used:
# Assay in all cases: glycan array binding signal (z-score within array); higher = stronger binding
# Conditions in all cases: glycan notation: IUPAC condensed, linker removed
# [1] = target: Fuc(a1-2)Gal(b1-4)[Fuc(a1-3)]GlcNAc(b1-2)Man(a1-3)[Fuc(a1-2)Gal(b1-4)[Fuc(a1-3)]GlcNAc(b1-2)Man(a1-6)]Man(b1-4)GlcNAc(b1-4)[Fuc(a1-6)]GlcNAc
# In short: (§1)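 From the Consortium for Functional Glycomics database, 3228 arrays were curated, keeping only those whose protein sequence was available. Binding is given as a within-array Z-score averaged across arrays sharing a protein sequence and across linkers. Negative Z-scores can be read as non-binding.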
# [2] = target: Fuc(a1-2)Gal(b1-4)[Fuc(a1-3)]GlcNAc(b1-2)[Fuc(a1-2)Gal(b1-4)[Fuc(a1-3)]GlcNAc(b1-4)]Man(a1-3)[Fuc(a1-2)Gal(b1-4)[Fuc(a1-3)]GlcNAc(b1-2)Man(a1-6)]Man(b1-4)GlcNAc(b1-4)GlcNAc
# In short: as §1
# [3] = target: Fuc(a1-2)Gal(b1-4)[Fuc(a1-3)]GlcNAc(b1-3)Gal(b1-4)[Fuc(a1-3)]GlcNAc
# In short: as §1
# [4] = target: Fuc(a1-2)Gal(b1-4)[Fuc(a1-3)]GlcNAc(b1-3)Gal(b1-4)[Fuc(a1-3)]GlcNAc(b1-3)Gal(b1-4)[Fuc(a1-3)]GlcNAc
# In short: as §1
# [5] = target: Fuc(a1-2)Gal(b1-4)[Fuc(a1-3)]GlcNAc(b1-3)GalNAc
# In short: as §1
# [6] = target: Fuc(a1-2)Gal(b1-4)[Fuc(a1-3)]GlcNAc(b1-3)[Neu5Ac(a2-6)Gal(b1-4)GlcNAc(b1-6)]Gal(b1-4)Glc
# In short: as §1
# [7] = target: Fuc(a1-2)Gal3S(b1-4)GlcNAc
# In short: as §1
# [8] = target: Fuc(a1-2)Gal6S(b1-3)GlcNAc
# In short: as §1
# [9] = target: Fuc(a1-2)Gal6S(b1-3)GlcNAc6S
# In short: as §1
# [10] = target: Fuc(a1-2)Gal6S(b1-4)Glc
# In short: as §1
# [11] = target: Fuc(a1-2)Gal6S(b1-4)Glc6S
# In short: as §1
# [12] = target: Fuc(a1-2)[Gal(a1-3)]Gal
# In short: as §1
# [13] = target: Fuc(a1-2)[Gal(a1-3)]Gal(b1-3)GalNAc
# In short: as §1
# [14] = target: Fuc(a1-2)[Gal(a1-3)]Gal(b1-3)GalNAc(b1-3)Gal(a1-4)Gal(b1-4)Glc
# In short: as §1
# [15] = target: Fuc(a1-2)[Gal(a1-3)]Gal(b1-3)GlcNAc
# In short: as §1
# [16] = target: Fuc(a1-2)[Gal(a1-3)]Gal(b1-3)GlcNAc(b1-2)Man(a1-3)[Fuc(a1-2)[Gal(a1-3)]Gal(b1-3)GlcNAc(b1-2)Man(a1-6)]Man(b1-4)GlcNAc(b1-4)GlcNAc
# In short: as §1
# [17] = target: Fuc(a1-2)[Gal(a1-3)]Gal(b1-3)GlcNAc(b1-2)Man(a1-3)[Fuc(a1-2)[Gal(a1-3)]Gal(b1-3)GlcNAc(b1-2)Man(a1-6)]Man(b1-4)GlcNAc(b1-4)[Fuc(a1-6)]GlcNAc
# In short: as §1
# [18] = target: Fuc(a1-2)[Gal(a1-3)]Gal(b1-3)GlcNAc(b1-3)GalNAc
# In short: as §1
# [19] = target: Fuc(a1-2)[Gal(a1-3)]Gal(b1-3)GlcNAc(b1-6)GalNAc
# In short: as §1
# [20] = target: Fuc(a1-2)[Gal(a1-3)]Gal(b1-4)Glc
# In short: as §1
# [21] = target: Fuc(a1-2)[Gal(a1-3)]Gal(b1-4)GlcNAc
# In short: as §1
# [22] = target: Fuc(a1-2)[Gal(a1-3)]Gal(b1-4)GlcNAc(b1-2)Man
# In short: as §1
# [23] = target: Fuc(a1-2)[Gal(a1-3)]Gal(b1-4)GlcNAc(b1-2)Man(a1-3)[Fuc(a1-2)[Gal(a1-3)]Gal(b1-4)GlcNAc(b1-2)Man(a1-6)]Man(b1-4)GlcNAc(b1-4)GlcNAc
# In short: as §1
# [24] = target: Fuc(a1-2)[Gal(a1-3)]Gal(b1-4)GlcNAc(b1-2)Man(a1-3)[Fuc(a1-2)[Gal(a1-3)]Gal(b1-4)GlcNAc(b1-2)Man(a1-6)]Man(b1-4)GlcNAc(b1-4)[Fuc(a1-6)]GlcNAc
# In short: as §1
# [25] = target: Fuc(a1-2)[Gal(a1-3)]Gal(b1-4)GlcNAc(b1-3)GalNAc
# In short: as §1
# [26] = target: Fuc(a1-2)[Gal(a1-3)]Gal(b1-4)GlcNAc(b1-3)[Fuc(a1-2)[Gal(a1-3)]Gal(b1-4)GlcNAc(b1-6)]GalNAc
# In short: as §1
# [27] = target: Fuc(a1-2)[Gal(a1-3)]Gal(b1-4)GlcNAc(b1-6)GalNAc
# In short: as §1
# [28] = target: Fuc(a1-2)[Gal(a1-3)]Gal(b1-4)[Fuc(a1-3)]Glc
# In short: as §1
# [29] = target: Fuc(a1-2)[Gal(a1-3)]Gal(b1-4)[Fuc(a1-3)]GlcNAc
# In short: as §1
# [30] = target: Fuc(a1-2)[Gal(a1-3)]Gal(b1-4)[Fuc(a1-3)]GlcNAc(b1-3)GalNAc
# In short: as §1
# [31] = target: Fuc(a1-2)[Gal(a1-4)]Gal(b1-4)GlcNAc
# In short: as §1
# [32] = target: Fuc(a1-2)[GalNAc(a1-3)]Gal
# In short: as §1
# [33] = target: Fuc(a1-2)[GalNAc(a1-3)]Gal(b1-3)GalNAc(a1-3)[Fuc(a1-2)]Gal(b1-4)GlcNAc
# In short: as §1
# [34] = target: Fuc(a1-2)[GalNAc(a1-3)]Gal(b1-3)GalNAc(b1-3)Gal(a1-4)Gal(b1-4)Glc
# In short: as §1
# [35] = target: Fuc(a1-2)[GalNAc(a1-3)]Gal(b1-3)GlcNAc
# In short: as §1
# [36] = target: Fuc(a1-2)[GalNAc(a1-3)]Gal(b1-3)GlcNAc(b1-2)Man(a1-3)[Fuc(a1-2)[GalNAc(a1-3)]Gal(b1-3)GlcNAc(b1-2)Man(a1-6)]Man(b1-4)GlcNAc(b1-4)GlcNAc
# In short: as §1
# [37] = target: Fuc(a1-2)[GalNAc(a1-3)]Gal(b1-3)GlcNAc(b1-2)Man(a1-3)[Fuc(a1-2)[GalNAc(a1-3)]Gal(b1-3)GlcNAc(b1-2)Man(a1-6)]Man(b1-4)GlcNAc(b1-4)[Fuc(a1-6)]GlcNAc
# In short: as §1
# [38] = target: Fuc(a1-2)[GalNAc(a1-3)]Gal(b1-3)GlcNAc(b1-3)GalNAc
# In short: as §1
binder,measurement,setting,value
B936 (Bifidobacterium sp) (protein) MKNWKKAIALVASAAALVSVAACGPSNAGGSSDSGKKTVGFVAVGPEGGFRTANEKDIQKAFEDAGFDLTYSPTQNNDQQKQIQAFNKFVNDEVDAIILSSTEDSGWDDSLKKAAEAEIPVFTVDRNVDVKDAEAKKAIVAHIGPSNVWCGEQAAEFVNKNFPDGANGFILEGPAGLSVVKDRGTGWGNKVASNVKVLESQSANWSTDEAKTVTAGLLDKYKSDNPQFIFAQNDEMGLGAAQAVDAAGLKGKVKIITIDGTKNALQALVDGDLSYVIEYNPIFGKETAQAVKDYLDGKTVEKDIEIESKTFDAASAKEALDNNTRAY,glycan array binding signal (z-score),[1],0.255
same,glycan array binding signal (z-score),[2],0.564
same,glycan array binding signal (z-score),[3],-0.393
same,glycan array binding signal (z-score),[4],0.372
same,glycan array binding signal (z-score),[5],0.154
same,glycan array binding signal (z-score),[6],-0.433
same,glycan array binding signal (z-score),[7],-0.056
same,glycan array binding signal (z-score),[8],0.442
same,glycan array binding signal (z-score),[9],-0.281
same,glycan array binding signal (z-score),[10],-0.781
same,glycan array binding signal (z-score),[11],-0.861
same,glycan array binding signal (z-score),[12],-0.542
same,glycan array binding signal (z-score),[13],-0.296
same,glycan array binding signal (z-score),[14],-0.268
same,glycan array binding signal (z-score),[15],-0.377
same,glycan array binding signal (z-score),[16],0.607
same,glycan array binding signal (z-score),[17],0.306
same,glycan array binding signal (z-score),[18],-0.708
same,glycan array binding signal (z-score),[19],-0.878
same,glycan array binding signal (z-score),[20],0.094
same,glycan array binding signal (z-score),[21],-0.138
same,glycan array binding signal (z-score),[22],-0.922
same,glycan array binding signal (z-score),[23],-0.146
same,glycan array binding signal (z-score),[24],-0.396
same,glycan array binding signal (z-score),[25],0.021
same,glycan array binding signal (z-score),[26],-0.277
same,glycan array binding signal (z-score),[27],-0.139
same,glycan array binding signal (z-score),[28],-0.416
same,glycan array binding signal (z-score),[29],-0.405
same,glycan array binding signal (z-score),[30],-0.217
same,glycan array binding signal (z-score),[31],0.084
same,glycan array binding signal (z-score),[32],-0.496
same,glycan array binding signal (z-score),[33],-0.358
same,glycan array binding signal (z-score),[34],-0.815
same,glycan array binding signal (z-score),[35],-0.641
same,glycan array binding signal (z-score),[36],-0.417
same,glycan array binding signal (z-score),[37],1.58
same,glycan array binding signal (z-score),[38],0.325

# Fetched one by one from the list above:
binder,measurement,setting,value
B936 (Bifidobacterium sp) (protein) MKNWKKAIALVASAAALVSVAACGPSNAGGSSDSGKKTVGFVAVGPEGGFRTANEKDIQKAFEDAGFDLTYSPTQNNDQQKQIQAFNKFVNDEVDAIILSSTEDSGWDDSLKKAAEAEIPVFTVDRNVDVKDAEAKKAIVAHIGPSNVWCGEQAAEFVNKNFPDGANGFILEGPAGLSVVKDRGTGWGNKVASNVKVLESQSANWSTDEAKTVTAGLLDKYKSDNPQFIFAQNDEMGLGAAQAVDAAGLKGKVKIITIDGTKNALQALVDGDLSYVIEYNPIFGKETAQAVKDYLDGKTVEKDIEIESKTFDAASAKEALDNNTRAY,glycan array binding signal (z-score),[27],-0.139
same,glycan array binding signal (z-score),[10],-0.781
